Measurements reported in PubChem BioAssay AID1159584 (Peter MacCallum Cancer Centre, 2016).
Aim: 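Genes whose loss is lethal only together with E-cadherin loss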 (primary screen). Cell system: human MCF10A breast epithelial cells, parental and CDH1-null. Reagents: siRNA against human genes. Measured: 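ATP luminescence (CellTiter-Glo) viability per line relative to mean mock wells over all plates, and the ratio of CDH1-null to parental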. Scale: CDH1-null / parental viability ratio: higher = CDH1-null cells survive relatively better than parental.
The whole screen tested about 18,000 reagents; shown is an unselected part. Further read-outs or replicates are left out here. The record does not give: the amount of reagent, the time to read-out.

VAX1
- CDH1-null / parental viability ratio: 0.87

KCNJ4
- CDH1-null / parental viability ratio: 1.76

E4F1
- CDH1-null / parental viability ratio: 0.79

SPDYC
- CDH1-null / parental viability ratio: 1.21

CDS1
- CDH1-null / parental viability ratio: 0.94

NIBAN1
- CDH1-null / parental viability ratio: 0.97

ATXN2
- CDH1-null / parental viability ratio: 1.15

CMTM6
- CDH1-null / parental viability ratio: 0.87

ACOT12
- CDH1-null / parental viability ratio: 1.14

ALG1L1P
- CDH1-null / parental viability ratio: 1.02

PRR15L
- CDH1-null / parental viability ratio: 0.82

MTARC1
- CDH1-null / parental viability ratio: 1.16

GDAP2
- CDH1-null / parental viability ratio: 0.89

RPRD2
- CDH1-null / parental viability ratio: 0.94

In a second layout: entries from further up.
gene knocked down	CDH1-null / parental viability ratio
GDAP2	0.89
RPRD2	0.94
